The results in this text go back to PMC7819943, “Rice protein-binding microarrays: a tool to detect cis-acting elements near promoter regions in rice”.

Sequences of proteins named here, by UniProt entry; tags and fusion partners are left off.
UniProt Q0JBA9, entry or part of it: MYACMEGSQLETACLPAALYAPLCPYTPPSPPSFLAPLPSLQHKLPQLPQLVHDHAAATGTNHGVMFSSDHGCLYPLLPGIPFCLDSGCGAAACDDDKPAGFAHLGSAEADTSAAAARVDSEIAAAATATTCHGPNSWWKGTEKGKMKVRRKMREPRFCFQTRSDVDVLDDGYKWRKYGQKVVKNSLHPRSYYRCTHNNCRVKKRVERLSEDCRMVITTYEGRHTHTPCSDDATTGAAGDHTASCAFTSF

Some of the results follow.

This test has as its target OsWRKY34 (Oryza sativa, UniProt Q0JBA9 1-250). The test can be described thus: protein-binding microarray (RPBM); PBS, 2% BSA, 51.3 ng/ul salmon testes DNA, 50 uM zinc acetate, 200 nM TF, 25 C, 1 h; high values mean tight binding. The settings on record: protein: recombinant; tags: N-terminal polyhistidine and DsRed monomer fusion (pET32a); label: CyDye5-dUTP incorporated in the synthesized complementary strand; 3' TTTTT single-stranded linker to array surface; dsDNA, one strand shown. The procedure, abridged: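 The binding signal is fluorescence intensity per array feature (arbitrary units). Readings came from an Axon 4000B scanner after a washed, 2% BSA-blocked, double-stranded custom Agilent array had been incubated for 1 h at 25 °C with 200 nM protein and 50 µM zinc acetate. The protein was a Ni–NTA-purified transcription factor fused N-terminally to polyhistidine and DsRed, expressed in E. coli BL21-CodonPlus.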
For “AATTACTTTAGCTTTGTTCTGCACTGTTCAAGTTTATTTGCGGAGTCACCTAGTGCAG”, the binding signal was 10300 fluorescence intensity (a.u.). With “CATCAACCATCTCCAATTTAAATTTCTCCCCATTCTACCTCGGAGTCACCTAGTGCAG”, the binding signal was 8630 fluorescence intensity (a.u.). In the case of “CTTCTTCGCTCTCCACTCCGTCGTCCACCATGGCAACCTCCGGAGTCACCTAGTGCAG”, the binding signal is 8890 fluorescence intensity (a.u.). Consider “TTTCTCACATGTTTGACCATTCGTCTTATTCAAAAATTTTCGGAGTCACCTAGTGCAG”, for which the binding signal is 12800 fluorescence intensity (a.u.).

Regarding “GCTCCGTAGTTCCGACAGATTCCTCATCCTCTTTCCCTTTCGGAGTCACCTAGTGCAG”, the binding signal is 11100 fluorescence intensity (a.u.). Then “GTCTCGCTTTCTCTCTCTAGGGTTTTTCCCCACTTTCGTTCGGAGTCACCTAGTGCAG”, with 13700 fluorescence intensity (a.u.). Then “TAGTGTTGACCCCGGTTTTATCCTACGTAGCGGCTGAGTCCGGAGTCACCTAGTGCAG”, with 9050 fluorescence intensity (a.u.); and “TCCACCAATTCTCTCTTTCTCTCTCAATTAGTCTACGACACGGAGTCACCTAGTGCAG”, with 9020 fluorescence intensity (a.u.); and “ACATCAGTTTGTTCGATATGGTTGTTAGTGTATTTTTTAACGGAGTCACCTAGTGCAG”, with 8740 fluorescence intensity (a.u.). The result for “TGACCCACCACCTTCTGAAAGCTACACACCAAATTGCAAACGGAGTCACCTAGTGCAG” reads 8200 fluorescence intensity (a.u.); that for “GGTAAGTTTTCTCCCTTGCTACAATACTACTATTGCCTGTCGGAGTCACCTAGTGCAG”, 8980 fluorescence intensity (a.u.); that for “TTTTATCCTACTCAAACTATCTTTTTTATTTCTCTAATTCCGGAGTCACCTAGTGCAG”, 9440 fluorescence intensity (a.u.). Regarding “ATCTCTTGCTTTACCTCTTGACTCGCATTTACAGAGTACACGGAGTCACCTAGTGCAG”, the binding signal was 8180 fluorescence intensity (a.u.). Then “TCGATTTGCTCGGAGGCGGAGAGGCCATGCATCCACGGAGCGGAGTCACCTAGTGCAG”, with 8030 fluorescence intensity (a.u.). Then “AGAGGGACAAGGGAGTTTGGGGTGTGTGTTTAGGTAATACCGGAGTCACCTAGTGCAG”, with 9270 fluorescence intensity (a.u.). Consider “AAAATTTTGCCTACCTATTGTTGTTCTTTTTCCTATATATCGGAGTCACCTAGTGCAG”, for which the binding signal is 9090 fluorescence intensity (a.u.). The result for “GAACCTCTCTAGCTATCCTTTGGTAATACCCTGCATCATACGGAGTCACCTAGTGCAG” reads 10200 fluorescence intensity (a.u.). Then “GACTTTTTTTCCACGGCCGAAACATACCGCGTGCATACGTCGGAGTCACCTAGTGCAG”, with 9720 fluorescence intensity (a.u.); and “TGATCTGATTTTTTTGGTTTTCATTTGCACATTTTCTAAGCGGAGTCACCTAGTGCAG”, with 10400 fluorescence intensity (a.u.); and “CCATACGATTCTTGGGGTATTTGGGTTGTTTTAGCTTCTGCGGAGTCACCTAGTGCAG”, with 13100 fluorescence intensity (a.u.). Then “CGTGTTGTTTCTTACGTACCATTTAAATAGTTACTCTCTCCGGAGTCACCTAGTGCAG”, with 12100 fluorescence intensity (a.u.); and “GCATATTTAATTTGTTATTCTCCATTTATATTTCCTCAATCGGAGTCACCTAGTGCAG”, with 9060 fluorescence intensity (a.u.). Regarding “AATACTATGCTTTTATATTCCTTTTTTTTTCTTAATCCTTCGGAGTCACCTAGTGCAG”, the binding signal is 9770 fluorescence intensity (a.u.). Then “TTCCACCCTATATGTCAATATTTTTTTTGTAAATGCTCACCGGAGTCACCTAGTGCAG”, with 9410 fluorescence intensity (a.u.); and “CGGTGGGTGGTGGACATTGGCGGGCGACGAGGCGCCGGTGCGGAGTCACCTAGTGCAG”, with 9210 fluorescence intensity (a.u.); and “CCACTCTCGCCGCTCGCCGTTGCCACTCGCACTCACAATGCGGAGTCACCTAGTGCAG”, with 10100 fluorescence intensity (a.u.).

Turning to “TATGGCTGTGTTTAGTTCGTGTGCCAAAATTTTTTTAAGTCGGAGTCACCTAGTGCAG”, the binding signal was 10400 fluorescence intensity (a.u.). The result for “CACAGGCGCGAGCATTCCCAGCGCTGCTCTCCCTGTACCCCGGAGTCACCTAGTGCAG” reads 8080 fluorescence intensity (a.u.); that for “ACCTACCTCATCATCGTCGAGCTCCTGATTTGCGTCGAGGCGGAGTCACCTAGTGCAG”, 8200 fluorescence intensity (a.u.). Take “CCACCGCCGCCTCCCGCGAGGTCTCCTTCTCGCGCGACAACGGAGTCACCTAGTGCAG”: the binding signal was 8200 fluorescence intensity (a.u.). Take “AGGGGATGTTTAGCTTGATGGTGATTGCTGAACTGTTGGACGGAGTCACCTAGTGCAG”: the binding signal is 9160 fluorescence intensity (a.u.).

On to “ACATGTTCTTTTTATGCTGCTTTACATATACTGCTTATCCCGGAGTCACCTAGTGCAG”, for which the binding signal is 12400 fluorescence intensity (a.u.). The result for “GCGGCGGAGGCCACCGGCGGTGACAACGGGGAGGGGAGGACGGAGTCACCTAGTGCAG” reads 8420 fluorescence intensity (a.u.); that for “CCATCAGTTGACCATGTGTTGACCGTTAACTCTCAAGTAACGGAGTCACCTAGTGCAG”, 9190 fluorescence intensity (a.u.); that for “GGAGAACTGAACCTTTTCTTCCTTATCGTCTTATGAACTACGGAGTCACCTAGTGCAG”, 8690 fluorescence intensity (a.u.). The result for “TGACTTCTCAACACTCCCTCCGTCTCGTCTTATTTTAAGTCGGAGTCACCTAGTGCAG” reads 11200 fluorescence intensity (a.u.).

For the sequence “ATAATATCTACTCCTGTCTCTCACCCCAGCCGCCCAATGACGGAGTCACCTAGTGCAG”, the binding signal was 8920 fluorescence intensity (a.u.).

Regarding “AGAAGGTCGTGGCGAGGGAGGGTGGGCGACGGGCGTGGCGCGGAGTCACCTAGTGCAG”, the binding signal is 10600 fluorescence intensity (a.u.). Then “GCAGGTCTCGGGGTTCTTCTCGTCCATCTTCCCCACCGGCCGGAGTCACCTAGTGCAG”, with 10700 fluorescence intensity (a.u.); and “CCATGAGTCCACGGTCCATGGGGCAAAACACCGGGGCGGGCGGAGTCACCTAGTGCAG”, with 8620 fluorescence intensity (a.u.); and “ACCCCACACACTACCCCTCCCTAGTTCGCCTTCCACGTACCGGAGTCACCTAGTGCAG”, with 8100 fluorescence intensity (a.u.). Then “TGTTATGAGATTAGGCCTTAGCTCCTTTGTTCCGGCTCTCCGGAGTCACCTAGTGCAG”, with 8340 fluorescence intensity (a.u.).
